Results reported in the supplement of paper PMC3334620.
In all, about 33,000 sequences were measured (“E-score (-0.5 to 0.5)”: median about -0.0059, highest 2% from about 0.26 on). This is one part of the list.

The sequences below were run against T1, Cin5 (UniProt P40917) (assay: PBM E-score (8-mer binding enrichment) (E-score (-0.5 to 0.5)); higher = stronger / more preferred TF binding). Settings: protein concentration: 100 nM; construct: GST-full length.
T1 sequence: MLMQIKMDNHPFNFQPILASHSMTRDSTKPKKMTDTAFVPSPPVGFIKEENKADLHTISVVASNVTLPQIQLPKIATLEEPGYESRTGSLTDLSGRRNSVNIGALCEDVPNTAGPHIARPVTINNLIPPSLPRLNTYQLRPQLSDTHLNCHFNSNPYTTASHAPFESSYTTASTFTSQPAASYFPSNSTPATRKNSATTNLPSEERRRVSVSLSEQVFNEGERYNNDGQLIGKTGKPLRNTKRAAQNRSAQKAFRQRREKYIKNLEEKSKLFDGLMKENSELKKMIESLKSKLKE
Procedure: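 Universal 'all 10-mer' protein binding microarrays (Agilent AMADID 015681) probed with GST-tagged S. cerevisiae TFs (full-length or DBD) made by in vitro transcription/translation (PURExpress), about 100-200 nM. Bound TF was detected with fluorescent anti-GST. Each ungapped 8-mer (which stands for itself and its reverse complement) is scored by the PBM enrichment score (E-score), a modified Wilcoxon-Mann-Whitney statistic from -0.5 to +0.5, computed with the Universal PBM Analysis Suite. Scale: above 0.35 generally sequence-specific binding.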

| Sequence | PBM E-score |
| --- | --- |
| ATGTGTTC | 0.0804 |
| AGCGAGGA | -0.064 |
| CATACGGA | 0.178 |
| CATGAAAG | 0.0394 |
| CCGGGCGC | -0.297 |
| ATGCCCGC | -0.0394 |
| CACATGAG | -0.105 |
| CGAGCGCA | 0.0288 |
| CAACTACC | -0.00696 |
| ACTTAAAC | 0.00365 |
| TAGACGCA | -0.127 |
| GCCAGCAC | -0.0976 |
| CGCACCCG | -0.0458 |
| TCGACGAA | 0.00487 |
| TCCGGAAA | 0.232 |
| GTTAGGAA | -0.0679 |
| GATTTAAA | -0.0641 |
| CGTCTTGC | -0.0513 |
| GCTTGTTA | 0.13 |
| GCCCTTTA | -0.201 |
| ACCACCAT | -0.00834 |
| AATAAGCT | 0.164 |
| GCTATAGC | -0.33 |
| AAGCTAGG | 0.0702 |
| CCCCAGTC | -0.173 |

| Sequence | PBM E-score |
| --- | --- |
| CAGCAATA | 0.0927 |
| ATCAAGAT | 0.0415 |
| GGCCGATA | -0.113 |
| AGGGCTTC | -0.245 |
| TACTTTAA | 0.0965 |
| ACAAGGGG | -0.198 |
| ACCTATCG | 0.144 |
| TTCACGAA | -0.0758 |
| ATGGCTTA | 0.148 |
| CCAATATA | 0.0434 |
| CATTCCGG | 0.0772 |
| CAGGCCCC | -0.301 |
| GCCATTAC | 0.0954 |
| AGCATAGG | 0.0243 |
| CGGATATC | 0.111 |
| ATAGTCGA | 0.19 |
| ACACTAGA | 0.111 |
| CCCATGCA | -0.00485 |
| TCTATAAA | 0.0639 |
| CATCTTAC | 0.101 |
| ACAACTAT | 0.157 |
| CGGCCCAA | -0.0355 |
| CGGAACCA | 0.246 |
| ATTGATGA | 0.119 |
| GACTAGCC | -0.25 |

| Sequence | PBM E-score |
| --- | --- |
| TTAGTAAA | 0.269 |
| ACCGCGAG | -0.122 |
| ACGATGGA | 0.00402 |
| AGGGGATG | -0.0811 |
| AAGTAGGC | -0.0336 |
| AGATGCCG | -0.049 |
| ACCCACAT | 0.0905 |
| CCGAATAA | 0.166 |
| CCACAAAG | 0.113 |
| GTACGCTA | -0.00613 |
| ACAGAAGA | 0.0865 |
| ACGGTGTG | -0.126 |
| ACATTTTG | 0.159 |
| TCCTCAGA | -0.165 |
| CGCGCAAG | 0.0818 |
| CAACAACC | 0.0257 |
| CGAGCCAC | -0.252 |
| CTAAGTTA | 0.0404 |
| AAGATCAT | 0.0925 |
| CCTCTGAC | -0.0742 |
| CTGTGACA | -0.0283 |
| ATAGACGC | 0.122 |
| CCGCTGCA | -0.0851 |
| ATCAGGAA | 0.155 |
| AACAGAGC | -0.0803 |

| Sequence | PBM E-score |
| --- | --- |
| CTGCGAAG | -0.268 |
| AACATCTG | -0.114 |
| GGCACCCC | -0.246 |
| AGCCGAGA | -0.0808 |
| CTGTCTTA | 0.00232 |
| AGACACGG | -0.0099 |
| CGACTAGC | -0.0834 |
| ATGCCCCA | -0.0481 |
| CAAGGAGG | 0.00169 |
| TCGGGAGA | -0.122 |
| AGAATCCG | -0.0125 |
| AATCTTCT | 0.0501 |
| TAGTAGGA | -0.03 |
| ACTAACAA | 0.147 |
| TCCAACAA | -0.107 |
| AAGGACGA | -0.127 |
| GACGTATC | -0.218 |
| CAATCTCG | 0.0199 |
| CGACGCCG | -0.0966 |
| AAAAGAGG | -0.0673 |
| ATGCTCCA | 0.0289 |
| GAATTCGC | 0.0864 |
| GCTTTGAC | 0.0402 |
| ACCGGGCC | -0.201 |
| ACCGACAC | -0.0656 |

| Sequence | PBM E-score |
| --- | --- |
| AGGTATAC | 0.0433 |
| AGATGACT | -0.0493 |
| AATATTCG | 0.19 |
| AGGCCTCG | -0.253 |
| GCAAACGC | 0.0409 |
| GACGTGCA | -0.00619 |
| CCCTACCC | -0.183 |
| TCTCAGAA | -0.164 |
| TGGGAAAA | -0.0319 |
| CAATGCGC | 0.145 |
| AAGCATTA | 0.127 |
| AATATTGA | 0.172 |
| CTACGGGC | -0.321 |
| TCAAGTGA | -0.00901 |
| ACTTCGCA | -0.0303 |
| ACACCGTA | -0.074 |
| CCTCATCC | -0.257 |
| CAGGTAGC | -0.171 |
| TAATTGTA | 0.207 |
| AGAACCTC | -0.242 |
| CTGGGGAA | -0.253 |
| ATCATCAC | 0.0889 |
| CCGTAGCG | -0.251 |
| ACTTTGTG | 0.0798 |
| GTTACATA | 0.266 |

| Sequence | PBM E-score |
| --- | --- |
| CGCCACGA | -0.177 |
| ACCAAATA | 0.183 |
| ACGCGGGA | 0.0706 |
| GCCTGCAC | -0.247 |
| GTTCGGTA | 0.00084 |
| TGGCCGAA | 0.125 |
| CTCTCATA | 0.144 |
| CGTCTACA | -0.266 |
| AACGGATG | -0.0257 |
| CGATGCTA | 0.0659 |
| CATGACAC | 0.0954 |
| CCAACATA | 0.247 |
| CAAGTCTG | -0.291 |
| CGTGCGCA | -0.0833 |
| CAGGGTGA | -0.173 |
| CCCTAAGC | -0.145 |
| AGTCGCTC | -0.175 |
| CAGCATTC | 0.0863 |
| ATCTGAAC | -0.00257 |
| ACTTCTGG | -0.129 |
| GCCATCAA | 0.0184 |
| CGTCTTCC | -0.093 |
| TAACTTGA | 0.0688 |
| CCTACGCA | -0.218 |
| AGCCTACT | -0.14 |

| Sequence | PBM E-score |
| --- | --- |
| ATCGTCCC | 0.128 |
| AACCTCGC | -0.0377 |
| CCCTCCAG | -0.18 |
| GACCGAGA | 0.0263 |
| GTTGCCGA | -0.0858 |
| AAGCGTCG | -0.0645 |
| AGGCAGCA | 0.124 |
| CGTGCCAG | -0.313 |
| AAGGTGAT | 0.00149 |
| CCGACGAC | 0.0356 |
| AATATAAT | 0.177 |
| CCTTAGAC | -0.155 |
| ACCACAAA | 0.103 |
| CTCCATTA | -0.0341 |
| CAGCAAAC | 0.113 |
| CCCTACTA | -0.0774 |
| GATATGTA | 0.189 |
| TTAGCGAA | 0.022 |
| CATTGAAG | -0.139 |
| CGGCTCGC | 0.0606 |
| ACTTTTAT | 0.0105 |
| AATAAGAT | 0.161 |
